# Measured values as given in the supplement of paper PMC8728848.
# This is one part of the list.
# B1: RsaA-N-term (Caulobacter crescentus), P35828 (protein)
# chain: MAYTTAQLVTAYTNANLGKAPDAATTLTLDAYATQTQTGGLSDAAALTNTLKLVNSTTAVAIQTYQFFTGVAPSAAGLDFLVDSTTNTNDLNDAYYSKFAQENRFINFSINLATGAGAGATAFAAAYTGVSYAQTVATAYDKIIGNAVATAAGVDVAAAVAFLSRQANIDYLTAFVRANTPFTAAADIDLAVKAALIGTILNAATVSGIGGYATATAAMINDLSDGALSTDNAAGVNLFTAYPSSGVSGSTLSLTTGTDTLTGTANNDTFVAGEVAGDGSGWSHPQFEKGG
# What was measured:
# Experiment in all cases: glycan array binding signal (z-score within array); higher = stronger binding
# Details in all cases: glycan notation: IUPAC condensed, linker removed
# [1] = target: Neu5Gc(a2-8)Neu5Gc(a2-3)Gal(b1-4)GlcNAc(b1-3)Gal(b1-4)GlcNAc
# How it was run: (§1)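 Glycan array data were curated from 3228 arrays in the Consortium for Functional Glycomics database and kept only where the protein sequence was available. Glycan names were converted to IUPAC-condensed notation, and columns mapping to the same glycan were averaged. The binding signal is a within-array Z-score, averaged across arrays of the same protein sequence at different concentrations or buffers and across linkers. Negative Z-scores can be read as non-binding.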
# [2] = target: Neu5Gc(a2-8)Neu5Gc(a2-6)Gal(b1-4)GlcNAc
# How it was run: as §1
# [3] = target: Neu5Gc(b2-6)Gal(b1-4)GlcNAc
# How it was run: as §1
binder,measurement,setting,value
B1,glycan array binding signal (z-score),[1],-0.282
same,glycan array binding signal (z-score),[2],-0.033
same,glycan array binding signal (z-score),[3],-0.368
